Reference: patent US5948759A (Nycomed Imaging AS, priority 1994, dated 1999)

Experiment: general procedure: Fmoc solid-phase peptide synthesis; Fmoc-Thr(But)-TentaGel ACS resin (2-methoxy-4-alkoxybenzyl alcohol handle; Rapp Polymere)
Conditions: for final HPLC purity: 215 nm
[1] = whole synthesis, scale 0.1 mmol

| Substance | final HPLC purity (whole synthesis, scale of the general procedure 0.1 mmol) [%] | crude mass [1] [mg] | isolated mass [1] [mg] | final HPLC purity (oxidative folding step) [%] |
| --- | --- | --- | --- | --- |
| Abu^91,98,102,112,114,127 -[FVII Glu^82 -Thr^128 ] | 96 | 13 | 2.0 |  |
| Disulphide-cyclo [Cys^91 -Cys^102 ]-Abu^98,112,114,127 -[FVII Glu^82 -Thr^128 ] |  |  |  | 95 |
| Disulphide-cyclo [Cys^91 -Cys^102,Cys^98 -Cys^112,Cys^114 -Cys^127 ]-[FVII Glu^82 -Thr^128 ] |  |  |  | 95 |
| Disulphide-cyclo [Cys^114 -Cys^127 ]-Abu^91,98,102,112, -[FVII Glu^82 -Thr^128 ] |  |  |  | 92 |
